# Patent US20120095077
# The chains behind the UniProt entries cited, without tags or fusion partners. Residues count along the entry.
# UniProt P19525, 1-184: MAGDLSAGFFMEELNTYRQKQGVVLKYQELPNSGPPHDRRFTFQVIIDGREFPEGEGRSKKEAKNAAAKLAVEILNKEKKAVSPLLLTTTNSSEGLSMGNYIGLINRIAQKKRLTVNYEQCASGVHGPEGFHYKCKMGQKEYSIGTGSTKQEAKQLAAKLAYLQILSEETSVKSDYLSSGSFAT
# Biological target: PKR RNA-binding domain (RBD) (UniProt P19525)
# Test: footprint
# Details: N2-propyl-8-oxo-2'-deoxyguanosine at antisense positions 4, 11, 16 (X); sense 3' TT overhang [antisense 4, 11, 16 (N2-propyl-8-oxo-2'-deoxyguanosine = G)]; ribonuclease V1 footprinting; A pairing places propyl in major groove; about 3-fold tighter than C-paired duplex; purified recombinant protein; letters built from the parent sequence and the stated change
sequence,measurement,value
GGAAAUGCAAGAGAAACUGTT / CAGGUUCUCUGGCAUGUCCTT,binding result,binds

# For at least one entry, the source does not settle the construct or the ends of the probe.
